# Reference: PubChem BioAssay AID504444 (National Center for Advancing Translational Sciences (NCATS), 2011)
# Among all 360,000 compounds or so, about 7,500 (2.1%) were called active. This list was built around the results that the source calls inconclusive (neither active nor inactive); the mix of calls is not that of the screen. Calls follow the shape of the dose curve; as a rule, active = well fitted inhibition curve with a large enough effect; inconclusive = small, poorly fitted or top-dose-only effect, or effect the other way; inactive = flat fitted curve, though single readings scatter. Potencies of inconclusive entries are doubtful fits and often do not repeat.
# Assay: Nrf2 qHTS screen for inhibitors; also: nearly all actives have a fitted effect of over 60% in size
# Details: A549 ARE-Fluc reporter, luciferase luminescence, 18-24 h; activity change, negative = inhibition: at 46 µM (top of the series)
# In short: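 In this cell-based qHTS, ARE-driven firefly luciferase in A549 cells reports Nrf2 activity; the luminescent signal after BugLite lysis is the measured value, with a prior CellTiter-Fluor read for cell health.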
# % is scaled to controls: 0 for no effect and ±100 for the full control effect; potency is read from the fitted curve at half-maximal effect.
SMILES,Potency,"activity change, negative = inhibition"
Cn1nnnc1SCC(=O)Nc1ccc2c(c1)OCO2,"inconclusive: 9.2 µM [activator, partial curve]",
Cc1ccccc1/C=C1\Sc2ccc(C(=O)N3CCN(c4ccccn4)CC3)cc2N(C)C1=O,"inconclusive: 20.6 µM [falling, partial curve, poor fit]",
CC(=O)Nc1sc2c(c1C(c1cccc(F)c1)N1CCN(CCO)CC1)CCCC2 (configuration not stated),"inconclusive: 1.16 µM [falling, full curve]",
Cc1cccc(C(C#N)c2ccc(Cl)nn2)c1 (configuration not stated),"inconclusive: 13 µM [activator, partial curve, poor fit]",
CCN(CC)c1nc2c(c(=O)[nH]c(=O)n2C)n1Cc1ccccc1Cl,,inactive: 0.163%
COc1cccc(N2CCN(S(=O)(=O)c3ccc4c(c3)NC(=O)CS4)CC2)c1,"inconclusive: 18.4 µM [falling, partial curve, poor fit]",
O=C1CC2(CCN(C(=O)COc3ccc(Cl)cc3)CC2)Oc2ccccc21,"inconclusive: 25.9 µM [falling, single point]",
Cc1ccc(C(=O)NCc2ccccn2)cc1S(=O)(=O)N1CCCCC1,"inconclusive: 29.1 µM [falling, single point]",
COc1cc(NC(=S)Nc2ccccn2)c(OC)cc1Cl,,inactive: -12.7%
O=C(Cn1ccccc1=O)Nc1ccc(Cl)c(S(=O)(=O)N2CCCCC2)c1,"inconclusive: 14.6 µM [falling, partial curve]",
N=C1SCC(=O)N1c1nc(-c2ccccc2)cs1,"inconclusive: 10.3 µM [activator, partial curve]",
Cn1c(CN2CCOCC2)nc2cc(NC(=O)COc3ccc([N+](=O)[O-])cc3)ccc21,"inconclusive: 25.9 µM [falling, single point]",
CCOC(=O)c1[nH]c2cc(OC)c(OC)cc2c1NC(=O)c1ccc2c(c1)OCO2,"inconclusive: 7.31 µM [falling, partial curve, poor fit]",
COC(=O)c1c(NC(=O)c2ccccc2)sc(C(=O)c2ccccc2)c1C,"inconclusive: 29.1 µM [falling, single point]",
CC(C)(C)c1ccc(OCCC(=O)Nc2cccc(S(=O)(=O)N3CCCC3)c2)cc1,"inconclusive: 29.1 µM [falling, single point]",
CCOC(=O)CNC(=O)CSc1nnc(-c2ccccc2)c(-c2ccccc2)n1,"inconclusive: 6.51 µM [activator, single point]",
CCn1c(SCC(=O)c2c[nH]c3ccccc23)nnc1-c1cccs1,,inactive: -16%
CCOc1ccccc1N1CCN(C(=O)C(Sc2ccccc2)c2ccccc2)CC1 (configuration not stated),"inconclusive: 23.1 µM [falling, single point]",
O=C(Nc1cc(-c2ccc(F)c(F)c2)no1)c1ccccc1F,"inconclusive: 1.84 µM [activator, full curve, poor fit]",
Cc1cccc(N2CCN(C(=O)C3CCCN(C(=O)c4cc5sccc5n4C)C3)CC2)c1C (configuration not stated),"inconclusive: 3.26 µM [falling, partial curve, poor fit]",
C[C@]12C=CC(=O)C=C1CCC1C3CC[C@](O)(C(=O)CO)[C@@]3(C)CC3OC312 (some centres not stated),,inactive: -17.6%

# By substructure: those above with fluorine.
SMILES,Potency,"activity change, negative = inhibition"
CC(=O)Nc1sc2c(c1C(c1cccc(F)c1)N1CCN(CCO)CC1)CCCC2 (configuration not stated),"inconclusive: 1.16 µM [falling, full curve]",
O=C(Nc1cc(-c2ccc(F)c(F)c2)no1)c1ccccc1F,"inconclusive: 1.84 µM [activator, full curve, poor fit]",

# Additional records

SMILES,Potency,"activity change, negative = inhibition"
COc1ccc(N2CCN(c3ncnc4onc(C)c34)CC2)cc1,active: 9.2 µM,
O=C(COc1c(Cl)cccc1Cl)Nc1ccccc1N1CCCC1,,inactive: -7.19%
CC1CCCN(S(=O)(=O)c2ccc(NC(=O)C3CCN(C(=O)c4ccco4)CC3)cc2)C1 (configuration not stated),"inconclusive: 23.1 µM [falling, single point]",
COc1ccc(C(=O)Nc2nnc(SCC(=O)NC3CC3)s2)cc1,"inconclusive: 6.51 µM [activator, single point]",
CCN(c1ccccc1)S(=O)(=O)c1csc(C(N)=O)c1,"inconclusive: 3.66 µM [falling, full curve, poor fit]",
COc1cc2c(cc1OC)-c1cc(OCc3ccccc3Cl)nc(=O)n1CC2,"inconclusive: 6.51 µM [activator, single point]",
O=C(/C=C/Nc1ccccc1F)c1ccc(Br)cc1,"inconclusive: 5.8 µM [activator, partial curve]",
O=C(c1ccncc1)N1CCN(C2CCCCC2)CC1,,inactive: 5.67%
Cc1ccc(NC(=O)c2c(C)oc3ncnc(N4CCCCC4)c23)c(C)c1,"inconclusive: 0.92 µM [activator, full curve, poor fit]",
Cc1noc(C)c1C(=O)Nc1nc2ccc(F)cc2s1,"inconclusive: 3.26 µM [activator, full curve]",
COc1ccc(CCNC(=O)c2ccc(-c3ccc([N+](=O)[O-])cc3Cl)o2)cc1,"inconclusive: 29.1 µM [falling, single point]",
CN1CCN(C(=O)c2cccc(-c3cc(O)c4ncccc4c3)c2)CC1,"inconclusive: 23.1 µM [activator, single point]",
CCCCc1ccc(NC(=O)Nc2cc(C)nn2C)cc1,,inactive: -19.5%
Cc1cc(-c2ccc(C)c(S(=O)(=O)NCC3CCN(Cc4cccc(F)c4)CC3)c2)on1,"inconclusive: 23.1 µM [falling, partial curve, poor fit]",
Cc1ccc(C)c(Cn2nnc3c(=O)[nH]c(C4CCCN(C(=O)C5CCCCC5)C4)nc32)c1 (configuration not stated),"inconclusive: 29.1 µM [falling, single point]",
COc1ccc(C2CC(c3ccccc3Cl)=NN2c2ccc(S(N)(=O)=O)cc2)cc1 (configuration not stated),"inconclusive: 14.6 µM [falling, single point]",
COCC(=O)Nc1nnc(-c2ccc(C(C)(C)C)cc2)s1,"inconclusive: 0.651 µM [activator, full curve]",
O=C(CCCOc1ccc(Cl)cc1)N1CCCCC1,"inconclusive: 29.1 µM [activator, single point]",
CC(C)CN1C(=O)C(=O)N(CC(=O)Nc2cc(Cl)ccc2Oc2ccccc2)C1=O,active: 23.1 µM,
Cc1sc2ncn(CC(=O)N3CCN(c4ccccc4F)CC3)c(=O)c2c1S(=O)(=O)N1CCOCC1,,inactive: -5.62%
CC(=O)c1ccc(Nc2nc(-c3ccccc3)nc3ccccc23)cc1,"inconclusive: 10.3 µM [falling, partial curve]",
